Source: the supplement of paper PMC12823440, “Inhibitors supercharge kinase turnover through native proteolytic circuits” (Nature, 2025)
Counter-ions that a name gives are not always drawn. The list shows a part of the results. Hit calls seldom repeat between salt and free forms of one compound.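 In K562 cells expressing nanoluciferase-fused kinases, luminescence was recorded at 4 h intervals between 2 and 18 h, normalized as percent of control with DMSO at 100% and a positive control at 0%. A significant (2 sigma) signal drop marks a time point as decreased. The authors' rule for a hit is not shown and takes in more than the number of time points.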

By UniProt entry, the sequences of proteins in these tests, tags left out. Where a name states a change or a piece, a line headed by the entry shows the natural chain unless it says otherwise.
UniProt O75460: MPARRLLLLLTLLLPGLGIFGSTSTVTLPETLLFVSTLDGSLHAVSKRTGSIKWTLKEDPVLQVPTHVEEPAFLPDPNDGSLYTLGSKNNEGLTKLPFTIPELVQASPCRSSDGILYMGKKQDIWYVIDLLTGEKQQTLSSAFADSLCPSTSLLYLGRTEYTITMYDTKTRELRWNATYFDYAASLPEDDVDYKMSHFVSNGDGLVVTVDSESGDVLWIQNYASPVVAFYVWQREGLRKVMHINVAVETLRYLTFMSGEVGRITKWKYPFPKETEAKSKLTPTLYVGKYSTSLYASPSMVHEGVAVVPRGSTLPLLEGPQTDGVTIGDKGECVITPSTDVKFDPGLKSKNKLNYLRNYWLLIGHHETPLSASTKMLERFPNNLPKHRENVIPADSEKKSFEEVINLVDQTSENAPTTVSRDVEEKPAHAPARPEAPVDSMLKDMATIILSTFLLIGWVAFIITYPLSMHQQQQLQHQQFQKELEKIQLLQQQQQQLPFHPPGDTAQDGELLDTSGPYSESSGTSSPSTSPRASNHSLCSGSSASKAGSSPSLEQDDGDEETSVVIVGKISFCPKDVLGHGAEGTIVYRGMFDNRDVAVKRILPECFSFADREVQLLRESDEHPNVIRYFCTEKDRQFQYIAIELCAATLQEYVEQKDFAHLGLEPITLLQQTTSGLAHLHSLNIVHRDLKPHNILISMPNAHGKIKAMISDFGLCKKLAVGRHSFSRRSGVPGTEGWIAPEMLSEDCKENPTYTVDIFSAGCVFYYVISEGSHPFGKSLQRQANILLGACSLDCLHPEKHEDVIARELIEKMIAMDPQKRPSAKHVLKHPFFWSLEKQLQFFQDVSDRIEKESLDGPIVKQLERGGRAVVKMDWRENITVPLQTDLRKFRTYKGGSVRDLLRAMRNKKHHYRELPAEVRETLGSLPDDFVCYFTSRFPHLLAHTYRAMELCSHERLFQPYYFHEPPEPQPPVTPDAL
UniProt P11362, whole entry, looked up: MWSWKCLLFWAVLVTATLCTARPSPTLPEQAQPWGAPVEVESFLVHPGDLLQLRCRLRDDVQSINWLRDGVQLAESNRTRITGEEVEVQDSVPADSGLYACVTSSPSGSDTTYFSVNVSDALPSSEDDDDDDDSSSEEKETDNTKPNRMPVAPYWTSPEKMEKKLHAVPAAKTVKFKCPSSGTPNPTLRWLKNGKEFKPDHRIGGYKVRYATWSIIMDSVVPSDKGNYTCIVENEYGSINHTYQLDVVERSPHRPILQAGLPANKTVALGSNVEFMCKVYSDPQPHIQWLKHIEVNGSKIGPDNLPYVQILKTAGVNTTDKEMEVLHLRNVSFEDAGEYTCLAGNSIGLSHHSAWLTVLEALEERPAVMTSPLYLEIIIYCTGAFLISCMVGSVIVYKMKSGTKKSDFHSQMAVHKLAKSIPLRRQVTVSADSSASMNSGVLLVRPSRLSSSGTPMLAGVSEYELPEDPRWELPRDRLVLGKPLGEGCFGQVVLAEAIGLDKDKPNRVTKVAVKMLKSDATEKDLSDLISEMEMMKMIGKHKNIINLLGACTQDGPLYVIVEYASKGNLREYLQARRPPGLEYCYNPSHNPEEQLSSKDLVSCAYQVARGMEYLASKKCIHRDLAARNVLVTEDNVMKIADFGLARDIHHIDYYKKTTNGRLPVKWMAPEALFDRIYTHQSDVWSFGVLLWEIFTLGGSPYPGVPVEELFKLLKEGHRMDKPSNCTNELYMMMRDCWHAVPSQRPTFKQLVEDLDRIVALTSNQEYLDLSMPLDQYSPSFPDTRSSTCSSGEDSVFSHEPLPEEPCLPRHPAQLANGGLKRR
UniProt P21802, whole entry, looked up: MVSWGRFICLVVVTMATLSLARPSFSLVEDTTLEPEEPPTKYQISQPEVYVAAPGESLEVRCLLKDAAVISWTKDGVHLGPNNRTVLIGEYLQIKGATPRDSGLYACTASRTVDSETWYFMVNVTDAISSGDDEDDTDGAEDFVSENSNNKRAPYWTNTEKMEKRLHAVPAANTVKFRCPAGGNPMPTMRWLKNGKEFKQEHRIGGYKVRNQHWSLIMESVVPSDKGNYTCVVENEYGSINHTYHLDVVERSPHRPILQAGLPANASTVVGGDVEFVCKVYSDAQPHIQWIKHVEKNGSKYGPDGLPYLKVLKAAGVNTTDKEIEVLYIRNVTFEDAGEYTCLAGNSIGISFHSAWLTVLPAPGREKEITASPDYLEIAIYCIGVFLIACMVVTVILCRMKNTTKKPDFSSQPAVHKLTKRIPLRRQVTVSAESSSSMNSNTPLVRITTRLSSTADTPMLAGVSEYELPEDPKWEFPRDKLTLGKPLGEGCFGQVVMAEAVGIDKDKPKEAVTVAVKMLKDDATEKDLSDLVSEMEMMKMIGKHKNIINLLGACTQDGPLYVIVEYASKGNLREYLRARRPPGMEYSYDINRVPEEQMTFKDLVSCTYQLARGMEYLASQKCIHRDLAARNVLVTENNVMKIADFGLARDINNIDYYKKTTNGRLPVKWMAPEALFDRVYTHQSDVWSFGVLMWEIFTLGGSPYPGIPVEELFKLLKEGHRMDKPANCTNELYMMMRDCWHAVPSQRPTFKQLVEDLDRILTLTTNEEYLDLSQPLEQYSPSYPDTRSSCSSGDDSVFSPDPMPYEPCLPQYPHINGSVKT
UniProt P22607, whole entry, looked up: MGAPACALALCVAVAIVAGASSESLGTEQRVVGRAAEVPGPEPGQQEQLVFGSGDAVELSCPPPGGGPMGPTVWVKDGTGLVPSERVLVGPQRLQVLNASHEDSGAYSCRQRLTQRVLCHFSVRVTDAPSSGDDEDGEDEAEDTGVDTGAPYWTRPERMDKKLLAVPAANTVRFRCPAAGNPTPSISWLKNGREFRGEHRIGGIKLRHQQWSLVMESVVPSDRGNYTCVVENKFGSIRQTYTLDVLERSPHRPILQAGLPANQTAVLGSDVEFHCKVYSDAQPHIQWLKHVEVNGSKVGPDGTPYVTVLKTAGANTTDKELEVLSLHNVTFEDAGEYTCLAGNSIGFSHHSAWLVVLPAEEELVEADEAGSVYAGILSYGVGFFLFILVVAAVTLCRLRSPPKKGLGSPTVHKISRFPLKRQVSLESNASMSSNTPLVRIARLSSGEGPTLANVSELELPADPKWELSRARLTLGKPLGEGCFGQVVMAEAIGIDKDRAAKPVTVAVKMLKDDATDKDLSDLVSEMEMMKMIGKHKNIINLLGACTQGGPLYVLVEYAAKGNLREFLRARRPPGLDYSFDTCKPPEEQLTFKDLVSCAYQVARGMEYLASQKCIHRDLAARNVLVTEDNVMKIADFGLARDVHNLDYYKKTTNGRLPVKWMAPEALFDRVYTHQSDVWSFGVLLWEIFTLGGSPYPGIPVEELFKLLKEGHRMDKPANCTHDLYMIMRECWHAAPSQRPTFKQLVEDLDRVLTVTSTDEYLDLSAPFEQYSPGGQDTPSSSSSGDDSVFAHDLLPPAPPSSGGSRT
UniProt P36888, whole entry: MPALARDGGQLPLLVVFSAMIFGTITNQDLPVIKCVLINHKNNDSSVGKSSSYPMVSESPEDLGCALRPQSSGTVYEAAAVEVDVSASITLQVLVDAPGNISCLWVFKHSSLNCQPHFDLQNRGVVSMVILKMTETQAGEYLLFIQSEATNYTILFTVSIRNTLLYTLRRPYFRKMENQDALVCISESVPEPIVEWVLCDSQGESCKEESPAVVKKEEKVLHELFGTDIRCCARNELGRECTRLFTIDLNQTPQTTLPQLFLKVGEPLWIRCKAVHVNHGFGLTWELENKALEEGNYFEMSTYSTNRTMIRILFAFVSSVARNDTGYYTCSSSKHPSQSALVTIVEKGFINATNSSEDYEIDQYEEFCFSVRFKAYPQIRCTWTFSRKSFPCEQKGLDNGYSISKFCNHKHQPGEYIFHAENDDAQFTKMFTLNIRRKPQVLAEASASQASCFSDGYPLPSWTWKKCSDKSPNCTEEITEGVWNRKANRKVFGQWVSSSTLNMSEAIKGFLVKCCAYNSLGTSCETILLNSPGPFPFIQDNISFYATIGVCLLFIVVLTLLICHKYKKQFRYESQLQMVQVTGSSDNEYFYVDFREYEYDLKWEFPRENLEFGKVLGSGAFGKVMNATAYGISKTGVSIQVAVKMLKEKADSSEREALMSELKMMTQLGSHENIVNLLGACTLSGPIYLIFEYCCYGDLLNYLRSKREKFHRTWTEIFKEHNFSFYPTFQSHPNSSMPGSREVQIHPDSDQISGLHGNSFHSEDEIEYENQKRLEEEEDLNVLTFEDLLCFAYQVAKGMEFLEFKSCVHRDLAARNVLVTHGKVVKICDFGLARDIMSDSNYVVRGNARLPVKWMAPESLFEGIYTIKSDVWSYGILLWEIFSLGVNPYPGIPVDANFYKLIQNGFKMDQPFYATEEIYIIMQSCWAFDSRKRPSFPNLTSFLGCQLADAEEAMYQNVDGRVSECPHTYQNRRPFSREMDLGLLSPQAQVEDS
UniProt P49840: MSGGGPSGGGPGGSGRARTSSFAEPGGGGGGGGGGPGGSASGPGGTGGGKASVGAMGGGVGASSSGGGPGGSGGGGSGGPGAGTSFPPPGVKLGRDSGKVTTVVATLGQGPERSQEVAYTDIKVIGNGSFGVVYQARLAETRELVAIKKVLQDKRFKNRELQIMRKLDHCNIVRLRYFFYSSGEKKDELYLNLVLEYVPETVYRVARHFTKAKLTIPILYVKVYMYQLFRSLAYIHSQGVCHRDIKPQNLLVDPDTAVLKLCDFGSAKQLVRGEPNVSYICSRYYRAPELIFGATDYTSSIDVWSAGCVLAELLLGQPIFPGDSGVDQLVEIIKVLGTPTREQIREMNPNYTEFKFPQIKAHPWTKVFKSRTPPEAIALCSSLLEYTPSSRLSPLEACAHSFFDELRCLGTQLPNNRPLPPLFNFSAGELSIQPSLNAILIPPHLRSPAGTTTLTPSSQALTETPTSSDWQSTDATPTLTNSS
UniProt P14616: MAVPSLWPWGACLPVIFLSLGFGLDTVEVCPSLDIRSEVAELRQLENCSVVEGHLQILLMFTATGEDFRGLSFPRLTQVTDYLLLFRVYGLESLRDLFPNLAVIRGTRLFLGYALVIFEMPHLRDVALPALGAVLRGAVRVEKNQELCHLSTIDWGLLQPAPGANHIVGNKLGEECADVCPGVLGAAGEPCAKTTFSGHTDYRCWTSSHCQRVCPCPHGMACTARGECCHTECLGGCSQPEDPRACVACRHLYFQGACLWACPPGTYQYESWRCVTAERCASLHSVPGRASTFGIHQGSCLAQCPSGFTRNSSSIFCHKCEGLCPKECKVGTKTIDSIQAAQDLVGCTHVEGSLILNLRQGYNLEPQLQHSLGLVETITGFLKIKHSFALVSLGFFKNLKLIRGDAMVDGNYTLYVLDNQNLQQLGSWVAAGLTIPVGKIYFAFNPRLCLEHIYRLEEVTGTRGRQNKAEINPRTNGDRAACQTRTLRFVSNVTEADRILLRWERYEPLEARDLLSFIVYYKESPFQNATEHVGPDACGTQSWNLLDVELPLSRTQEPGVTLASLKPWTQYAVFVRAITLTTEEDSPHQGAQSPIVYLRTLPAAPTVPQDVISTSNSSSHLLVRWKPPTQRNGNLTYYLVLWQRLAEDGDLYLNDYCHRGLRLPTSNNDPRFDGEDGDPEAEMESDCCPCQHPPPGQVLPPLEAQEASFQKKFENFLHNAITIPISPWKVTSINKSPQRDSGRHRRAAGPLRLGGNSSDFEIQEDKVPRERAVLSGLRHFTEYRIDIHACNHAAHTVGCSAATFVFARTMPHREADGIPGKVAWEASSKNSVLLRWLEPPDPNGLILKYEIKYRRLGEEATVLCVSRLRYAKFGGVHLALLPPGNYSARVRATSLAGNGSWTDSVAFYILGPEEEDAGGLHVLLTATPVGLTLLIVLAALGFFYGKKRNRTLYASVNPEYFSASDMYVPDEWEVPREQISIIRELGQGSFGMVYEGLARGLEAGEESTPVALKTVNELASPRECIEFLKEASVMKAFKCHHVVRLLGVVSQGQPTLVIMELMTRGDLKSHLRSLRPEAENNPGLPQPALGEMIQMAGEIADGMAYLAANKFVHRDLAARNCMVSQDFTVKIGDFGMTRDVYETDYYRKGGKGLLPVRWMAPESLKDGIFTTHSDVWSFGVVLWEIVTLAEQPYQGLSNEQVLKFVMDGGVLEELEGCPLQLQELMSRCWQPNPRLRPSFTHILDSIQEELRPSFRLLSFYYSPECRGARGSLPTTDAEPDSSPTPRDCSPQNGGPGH

How the values were obtained:
Test in all cases: kinase-Nluc reporter destabilization hit call (1 = scored as downregulated) (binary); higher = compound decreases kinase abundance
Conditions in all cases: K562; 2-18 h
ERN1 = ERN1 (UniProt O75460)
FGFR1 = FGFR1 (UniProt P11362)
FGFR2 = FGFR2 (UniProt P21802)
FGFR3 = FGFR3 (UniProt P22607)
FGR = FGR (UniProt P09769)
FLT3 = FLT3 (UniProt P36888)
FYN = FYN (UniProt P06241)
GSK3A = GSK3A (UniProt P49840)
HER2 = HER2 (UniProt P04626)
INSRR = INSRR (UniProt P14616)

Measured: kinase-Nluc reporter destabilization hit call

Cn1cnc2c(F)c(Nc3ccc(Br)cc3Cl)c(C(=O)NOCCO)cc21 [Selumetinib] (10 µM)
inactive: ERN1 = 0 | FGFR1 = 0 | FGFR2 = 0 | FGFR3 = 0 | FGR 0 | FLT3 = 0 | FYN 0 | GSK3A 0 | HER2 = 0 | INSRR 0

CCS(=O)(=O)Nc1ccc2[nH]c(O)c(C(=Nc3ccc(CN4CCCCC4)cc3)c3ccccc3)c2c1 [Hesperadin] (2.5 µM)
inactive: ERN1 = 0 | FGFR1 = 0 | FGFR2 = 0 | FGFR3 = 0 | FGR 0 | FLT3 = 0 | FYN 0 | GSK3A 0 | HER2 = 0 | INSRR 0

O=C([O-])c1cc2ccccc2c(Cc2c(O)c(C(=O)[O-])cc3ccccc23)c1O.[Na+].[Na+] [Pamoic acid (disodium)] (10 µM)
inactive: ERN1 = 0 | FGFR1 = 0 | FGFR2 = 0 | FGFR3 = 0 | FGR 0 | FLT3 = 0 | FYN 0 | GSK3A 0 | HER2 = 0 | INSRR 0

Cc1cc(Nc2ncnc3ccc(NC4=NC(C)(C)CO4)cc23)ccc1Oc1ccn2ncnc2c1 [Tucatinib] (2.5 µM)
inactive: ERN1 = 0 | FGFR1 = 0 | FGFR2 = 0 | FGFR3 = 0 | FGR 0 | FLT3 = 0 | FYN 0 | GSK3A 0 | HER2 = 0 | INSRR 0

CCN1CCN(Cc2ccc(-c3cc4c(N[C@H](C)c5ccccc5)ncnc4[nH]3)cc2)CC1 (2.5 µM)
inactive: ERN1 = 0 | FGFR1 = 0 | FGFR2 = 0 | FGFR3 = 0 | FGR 0 | FLT3 = 0 | FYN 0 | GSK3A 0 | HER2 = 0 | INSRR 0

Already shown: 2 of the compounds above.
Cc1cc(Nc2ncnc3ccc(NC4=NC(C)(C)CO4)cc23)ccc1Oc1ccn2ncnc2c1 [Tucatinib] (2.5 µM)
inactive: ERN1 = 0 | FGFR1 = 0 | FGFR2 = 0 | FGFR3 = 0 | FGR 0 | FLT3 = 0 | FYN 0 | GSK3A 0 | HER2 = 0 | INSRR 0

CCN1CCN(Cc2ccc(-c3cc4c(N[C@H](C)c5ccccc5)ncnc4[nH]3)cc2)CC1 (2.5 µM)
inactive: ERN1 = 0 | FGFR1 = 0 | FGFR2 = 0 | FGFR3 = 0 | FGR 0 | FLT3 = 0 | FYN 0 | GSK3A 0 | HER2 = 0 | INSRR 0

The results go on:

Cn1cc(-c2ccc3nnc(Sc4ccc5ncccc5c4)n3n2)cn1 (10 µM)
inactive: ERN1 = 0 | FGFR1 = 0 | FGFR2 = 0 | FGFR3 = 0 | FGR 0 | FLT3 = 0 | FYN 0 | GSK3A 0 | HER2 = 0 | INSRR 0

Cc1nc(-c2cn3c(n2)-c2ccc(-c4cnn(C(C)(C)C(N)=O)c4)cc2OCC3)n(C(C)C)n1 [Taselisib] (10 µM)
inactive: ERN1 = 0 | FGFR1 = 0 | FGFR2 = 0 | FGFR3 = 0 | FGR 0 | FLT3 = 0 | FYN 0 | GSK3A 0 | HER2 = 0 | INSRR 0

Cn1nccc1Nc1nccc(-c2ccn([C@H](CO)c3ccc(Cl)c(F)c3)c(=O)c2)n1 [Ravoxertinib] (10 µM)
inactive: ERN1 = 0 | FGFR1 = 0 | FGFR2 = 0 | FGFR3 = 0 | FGR 0 | FLT3 = 0 | FYN 0 | GSK3A 0 | HER2 = 0 | INSRR 0

C[C@@H](c1ccc(F)cc1)n1nnc2cnc3ccc(-c4ccc5ocnc5c4)cc3c21 (10 µM)
inactive: ERN1 = 0 | FGFR1 = 0 | FGFR2 = 0 | FGFR3 = 0 | FGR 0 | FLT3 = 0 | FYN 0 | GSK3A 0 | HER2 = 0 | INSRR 0

Nc1ncnc2c1c(-c1cccc(OCc3ccccc3)c1)cn2C1CC(CN2CCC2)C1 (stereo not given) (2.5 µM)
inactive: ERN1 = 0 | FGFR1 = 0 | FGFR2 = 0 | FGFR3 = 0 | FGR 0 | FLT3 = 0 | FYN 0 | GSK3A 0 | HER2 = 0 | INSRR 0

O=C1Nc2ccc(C(=O)c3ccco3)cc2C1=Cc1cc(Cl)c(O)c(Cl)c1 (2.5 µM)
inactive: ERN1 = 0 | FGFR1 = 0 | FGFR2 = 0 | FGFR3 = 0 | FGR 0 | FLT3 = 0 | FYN 0 | GSK3A 0 | HER2 = 0 | INSRR 0

COc1cc2c(cc1OC)CN(S(=O)(=O)c1ccc(OC)c(N3CCN(C(=O)c4ccc(F)cc4C(F)(F)F)CC3)c1)CC2 (10 µM)
inactive: ERN1 = 0 | FGFR1 = 0 | FGFR2 = 0 | FGFR3 = 0 | FGR 0 | FLT3 = 0 | FYN 0 | GSK3A 0 | HER2 = 0 | INSRR 0

NCCNS(=O)(=O)c1cccc2c(Cl)cccc12 [A-3 (hydrochloride)] (10 µM)
inactive: ERN1 = 0 | FGFR1 = 0 | FGFR2 = 0 | FGFR3 = 0 | FGR 0 | FLT3 = 0 | FYN 0 | GSK3A 0 | HER2 = 0 | INSRR 0

COc1cc2nccc(Oc3ccc(NC(=O)NC4CC4)c(Cl)c3)c2cc1C(N)=O [Lenvatinib] (10 µM)
inactive: ERN1 = 0 | FGFR1 = 0 | FGFR2 = 0 | FGFR3 = 0 | FGR 0 | FLT3 = 0 | FYN 0 | GSK3A 0 | HER2 = 0 | INSRR 0

Cc1cccc(-c2[nH]ncc2-c2ccc(F)c(-c3cnn(CCO)c3)c2)n1 (10 µM)
inactive: ERN1 = 0 | FGFR1 = 0 | FGFR2 = 0 | FGFR3 = 0 | FGR 0 | FLT3 = 0 | FYN 0 | GSK3A 0 | HER2 = 0 | INSRR 0

Cn1cc(-c2ccc3c(c2)CCN3C(=O)Cc2cccc(C(F)(F)F)c2)c2c(N)ncnc21 (2.5 µM)
inactive: ERN1 = 0 | FGFR1 = 0 | FGFR2 = 0 | FGFR3 = 0 | FGR 0 | FLT3 = 0 | FYN 0 | GSK3A 0 | HER2 = 0 | INSRR 0

CNC(=O)c1ccc(C)c(-n2c(C)cc(OCc3ccc(F)cc3F)c(Br)c2=O)c1 (10 µM)
inactive: ERN1 = 0 | FGFR1 = 0 | FGFR2 = 0 | FGFR3 = 0 | FGR 0 | FLT3 = 0 | FYN 0 | GSK3A 0 | HER2 = 0 | INSRR 0

CCc1cc2c(cc1N1CCC(N3CCOCC3)CC1)C(C)(C)c1[nH]c3cc(C#N)ccc3c1C2=O [Alectinib] (10 µM)
inactive: ERN1 = 0 | FGFR1 = 0 | FGFR2 = 0 | FGFR3 = 0 | FGR 0 | FLT3 = 0 | FYN 0 | GSK3A 0 | HER2 = 0 | INSRR 0

COc1cc(OC2CCN(C)CC2)ccc1Nc1ncc2c(n1)n(C1CCCC1)c(=O)n2C (10 µM)
inactive: ERN1 = 0 | FGFR1 = 0 | FGFR2 = 0 | FGFR3 = 0 | FGR 0 | FLT3 = 0 | FYN 0 | GSK3A 0 | HER2 = 0 | INSRR 0

c1cc(-c2c[nH]c3nccc(N4CCC[C@@]5(CCCCN5)C4)c23)ncn1 (10 µM)
inactive: ERN1 = 0 | FGFR1 = 0 | FGFR2 = 0 | FGFR3 = 0 | FGR 0 | FLT3 = 0 | FYN 0 | GSK3A 0 | HER2 = 0 | INSRR 0

Cc1cc2ncc(-c3ccc(O)c(O)c3)nc2cc1C [Tyrphostin AG1433] (10 µM)
inactive: ERN1 = 0 | FGFR1 = 0 | FGFR2 = 0 | FGFR3 = 0 | FGR 0 | FLT3 = 0 | FYN 0 | GSK3A 0 | HER2 = 0 | INSRR 0

Cn1cc(-c2cnn3c(N)c(Br)c([C@@H]4CCCNC4)nc23)cn1 (2.5 µM)
inactive: ERN1 = 0 | FGFR1 = 0 | FGFR2 = 0 | FGFR3 = 0 | FGR 0 | FLT3 = 0 | FYN 0 | GSK3A 0 | HER2 = 0 | INSRR 0

Cc1[nH]c(/C=C2\C(=O)Nc3ccccc32)c(C)c1CCC(=O)O [Orantinib] (10 µM)
inactive: ERN1 = 0 | FGFR1 = 0 | FGFR2 = 0 | FGFR3 = 0 | FGR 0 | FLT3 = 0 | FYN 0 | GSK3A 0 | HER2 = 0 | INSRR 0

N#CCC1CCN(c2nc(Nc3ccc(N4CCC(O)CC4)cc3)c3c(=O)[nH]ncc3n2)CC1 [Gusacitinib] (10 µM)
inactive: ERN1 = 0 | FGFR1 = 0 | FGFR2 = 0 | FGFR3 = 0 | FGR 0 | FLT3 = 0 | FYN 0 | GSK3A 0 | HER2 = 0 | INSRR 0

CS(=O)(=O)Nc1cc(-c2ccc3ncnc(Nc4ccc(F)c(Cl)c4)c3c2)cnc1Cl (2.5 µM)
inactive: ERN1 = 0 | FGFR1 = 0 | FGFR2 = 0 | FGFR3 = 0 | FGR 0 | FLT3 = 0 | FYN 0 | GSK3A 0 | HER2 = 0 | INSRR 0

O=S(=O)(NCCCN1c2ccccc2CCc2ccc(Cl)cc21)c1ccc(OC(F)(F)F)cc1 (2.5 µM)
inactive: ERN1 = 0 | FGFR1 = 0 | FGFR2 = 0 | FGFR3 = 0 | FGR 0 | FLT3 = 0 | FYN 0 | GSK3A 0 | HER2 = 0 | INSRR 0

COc1cc(Nc2ncc(F)c(Nc3ccc4c(n3)N(COP(=O)(O)O)C(=O)C(C)(C)O4)n2)cc(OC)c1OC [Fostamatinib Disodium] (10 µM)
inactive: ERN1 = 0 | FGFR1 = 0 | FGFR2 = 0 | FGFR3 = 0 | FGR 0 | FLT3 = 0 | FYN 0 | GSK3A 0 | HER2 = 0 | INSRR 0

c1ccc(-c2[nH]ncc2-c2ccnc3ccccc23)nc1 (10 µM)
inactive: ERN1 = 0 | FGFR1 = 0 | FGFR2 = 0 | FGFR3 = 0 | FGR 0 | FLT3 = 0 | FYN 0 | GSK3A 0 | HER2 = 0 | INSRR 0

C[C@@H]1COCCN1c1cc(C2([S@@](C)(=N)=O)CC2)nc(-c2ccnc3[nH]ccc23)n1 [(S)-Ceralasertib] (10 µM)
inactive: ERN1 = 0 | FGFR1 = 0 | FGFR2 = 0 | FGFR3 = 0 | FGR 0 | FLT3 = 0 | FYN 0 | GSK3A 0 | HER2 = 0 | INSRR 0
